Assay [1] deals with T1, S100A16 (endogenous, CaLH3 cells) (human (endogenous in CaLH3)), Q96FQ6.
T1 chain: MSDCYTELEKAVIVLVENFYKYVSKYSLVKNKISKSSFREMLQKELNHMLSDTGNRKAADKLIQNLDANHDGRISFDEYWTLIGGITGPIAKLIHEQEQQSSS
The assay is described as follows: co-IP; reverse: CaLH3 lysate (RIPA buffer), precipitated with anti-S100A16 antibody, 0 mM CaCl2, 4°C; blotted with anti-S100A14. Conditions: remark: other sources report otherwise.

The target in assay [2] is T2, S100A14 (endogenous, CaLH3 cells) (human (endogenous in CaLH3)), Q9HCY8.
T2 chain: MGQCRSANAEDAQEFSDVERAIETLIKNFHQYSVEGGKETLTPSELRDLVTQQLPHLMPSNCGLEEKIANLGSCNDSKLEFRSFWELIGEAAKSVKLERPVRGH
Briefly: co-IP; CaLH3 lysate (RIPA buffer), precipitated with anti-S100A14 antibody in the presence of 0, 0.5 or 2 mM CaCl2, 4°C; blotted with anti-S100A16. Conditions: remark: other sources report otherwise.

For assay [3], the target named is T3, S100A14 (endogenous, CaLH3 cells) (human (endogenous in CaLH3)) (UniProt Q9HCY8).
T3 sequence: T2 chain
Briefly: condition: only with 5 mM EDTA along with 2 mM CaCl2; co-IP; CaLH3 lysate (RIPA buffer), precipitated with anti-S100A14 antibody in the presence of 2 mM CaCl2 with 5 mM EDTA, 4°C; blotted with anti-S100A16.

Results are given in words; binding and its absence hold for the method and conditions named. Binding seen in cells or lysates may run through a third protein. Some binding calls cover weakened binding; strength is not graded here.

B1: S100A14 (endogenous, CaLH3 cells), Q9HCY8 1-104 (protein)
chain: T2 chain
With B1, the binding entry in assay [1] is listed as “binds”.

B2: S100A16 (endogenous, CaLH3 cells), Q96FQ6 1-103 (protein)
chain: T1 chain
For B2, the binding entry in assay [2] is reported as “binds”.

B3: S100A16 (endogenous, CaLH3 cells) (protein, UniProt Q96FQ6 1-103)
chain: T1 chain
As to B3, the binding result in assay [3] is reported as “no binding”.

These data come from article PMC3785438.
